Laboratory results as given in the supplement of paper PMC12067093, “Discovery and optimisation of a covalent ligand for TRIM25 and its application to targeted protein ubiquitination” (Chemical Science, 2025).
The other results are listed elsewhere or left out.

Chains of the proteins cited; added tags and fusions are not shown. Lines headed by an entry give the natural chain unless they say otherwise; changes in a name come on top.
UniProt Q9UJA3: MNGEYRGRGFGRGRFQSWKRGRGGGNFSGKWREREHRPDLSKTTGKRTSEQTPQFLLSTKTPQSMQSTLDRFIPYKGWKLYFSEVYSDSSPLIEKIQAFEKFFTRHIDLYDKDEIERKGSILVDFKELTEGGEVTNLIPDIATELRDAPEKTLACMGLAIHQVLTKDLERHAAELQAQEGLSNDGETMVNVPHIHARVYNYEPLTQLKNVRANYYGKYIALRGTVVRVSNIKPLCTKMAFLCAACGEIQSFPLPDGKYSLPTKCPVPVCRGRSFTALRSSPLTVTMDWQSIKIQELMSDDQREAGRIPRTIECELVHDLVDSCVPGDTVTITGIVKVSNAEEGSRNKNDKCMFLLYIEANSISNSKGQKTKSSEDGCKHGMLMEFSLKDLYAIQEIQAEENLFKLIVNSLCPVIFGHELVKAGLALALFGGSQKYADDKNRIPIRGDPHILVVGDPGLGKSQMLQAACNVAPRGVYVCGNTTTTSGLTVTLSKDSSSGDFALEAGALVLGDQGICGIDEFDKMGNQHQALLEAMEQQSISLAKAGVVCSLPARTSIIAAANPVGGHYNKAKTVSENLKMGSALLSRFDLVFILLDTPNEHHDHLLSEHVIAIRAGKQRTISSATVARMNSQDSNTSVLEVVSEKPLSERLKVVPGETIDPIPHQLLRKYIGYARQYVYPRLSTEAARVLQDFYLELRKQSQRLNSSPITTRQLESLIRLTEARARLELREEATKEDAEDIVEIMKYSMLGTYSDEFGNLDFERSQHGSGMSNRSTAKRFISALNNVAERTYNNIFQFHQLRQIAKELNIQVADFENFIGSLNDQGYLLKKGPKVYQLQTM
UniProt P10620: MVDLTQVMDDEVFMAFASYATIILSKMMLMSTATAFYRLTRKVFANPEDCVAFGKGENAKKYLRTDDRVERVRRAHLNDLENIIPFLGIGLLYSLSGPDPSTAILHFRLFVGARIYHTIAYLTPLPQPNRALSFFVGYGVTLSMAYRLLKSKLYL
UniProt Q7L2J0: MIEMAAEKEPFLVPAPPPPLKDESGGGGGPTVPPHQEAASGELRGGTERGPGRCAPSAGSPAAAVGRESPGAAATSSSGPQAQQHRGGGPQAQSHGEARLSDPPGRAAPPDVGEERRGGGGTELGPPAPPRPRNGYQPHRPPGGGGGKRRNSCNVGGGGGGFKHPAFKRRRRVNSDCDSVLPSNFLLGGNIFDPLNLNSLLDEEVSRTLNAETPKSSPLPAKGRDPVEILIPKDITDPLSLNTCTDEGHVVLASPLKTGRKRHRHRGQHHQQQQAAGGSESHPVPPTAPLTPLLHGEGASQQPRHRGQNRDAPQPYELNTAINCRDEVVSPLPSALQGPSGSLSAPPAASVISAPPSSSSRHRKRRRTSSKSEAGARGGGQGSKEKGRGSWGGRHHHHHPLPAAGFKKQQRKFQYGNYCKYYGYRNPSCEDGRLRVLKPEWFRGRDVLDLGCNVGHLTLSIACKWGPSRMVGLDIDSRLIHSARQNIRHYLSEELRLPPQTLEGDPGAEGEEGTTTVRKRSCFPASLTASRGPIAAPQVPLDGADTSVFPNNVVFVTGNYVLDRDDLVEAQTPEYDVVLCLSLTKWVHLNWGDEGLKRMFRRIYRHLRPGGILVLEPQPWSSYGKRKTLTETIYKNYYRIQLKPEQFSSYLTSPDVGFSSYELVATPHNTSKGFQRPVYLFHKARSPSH
UniProt Q14566: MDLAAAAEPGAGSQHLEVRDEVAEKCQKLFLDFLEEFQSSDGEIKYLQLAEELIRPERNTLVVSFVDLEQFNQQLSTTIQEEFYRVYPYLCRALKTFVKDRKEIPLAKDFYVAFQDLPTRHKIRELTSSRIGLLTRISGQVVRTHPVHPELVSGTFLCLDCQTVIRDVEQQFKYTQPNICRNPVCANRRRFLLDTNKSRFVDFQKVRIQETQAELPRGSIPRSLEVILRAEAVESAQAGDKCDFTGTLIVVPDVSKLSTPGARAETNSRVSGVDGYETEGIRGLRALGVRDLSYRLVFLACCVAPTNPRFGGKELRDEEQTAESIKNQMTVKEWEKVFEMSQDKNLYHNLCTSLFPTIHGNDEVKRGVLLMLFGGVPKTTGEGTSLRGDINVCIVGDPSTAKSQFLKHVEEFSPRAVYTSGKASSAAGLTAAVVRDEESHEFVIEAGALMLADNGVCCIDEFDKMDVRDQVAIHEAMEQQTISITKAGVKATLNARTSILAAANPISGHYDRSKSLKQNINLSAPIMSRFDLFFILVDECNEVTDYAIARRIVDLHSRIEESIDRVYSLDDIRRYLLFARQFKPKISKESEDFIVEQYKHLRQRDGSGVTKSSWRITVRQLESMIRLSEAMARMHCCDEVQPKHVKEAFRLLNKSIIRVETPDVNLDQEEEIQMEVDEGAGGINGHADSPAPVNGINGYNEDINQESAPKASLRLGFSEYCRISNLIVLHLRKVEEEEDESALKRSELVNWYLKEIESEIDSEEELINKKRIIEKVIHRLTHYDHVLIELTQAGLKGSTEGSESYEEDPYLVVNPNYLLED
UniProt Q07820, whole entry, looked up: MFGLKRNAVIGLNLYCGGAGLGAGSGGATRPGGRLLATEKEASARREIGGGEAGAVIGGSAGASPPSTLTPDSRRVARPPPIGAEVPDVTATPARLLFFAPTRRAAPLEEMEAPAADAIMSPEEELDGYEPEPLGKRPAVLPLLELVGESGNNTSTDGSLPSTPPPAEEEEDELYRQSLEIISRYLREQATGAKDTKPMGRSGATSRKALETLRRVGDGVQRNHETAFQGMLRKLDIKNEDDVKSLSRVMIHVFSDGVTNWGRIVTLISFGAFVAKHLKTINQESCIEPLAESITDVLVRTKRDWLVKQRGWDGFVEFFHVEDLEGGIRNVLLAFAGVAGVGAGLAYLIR
UniProt O60318: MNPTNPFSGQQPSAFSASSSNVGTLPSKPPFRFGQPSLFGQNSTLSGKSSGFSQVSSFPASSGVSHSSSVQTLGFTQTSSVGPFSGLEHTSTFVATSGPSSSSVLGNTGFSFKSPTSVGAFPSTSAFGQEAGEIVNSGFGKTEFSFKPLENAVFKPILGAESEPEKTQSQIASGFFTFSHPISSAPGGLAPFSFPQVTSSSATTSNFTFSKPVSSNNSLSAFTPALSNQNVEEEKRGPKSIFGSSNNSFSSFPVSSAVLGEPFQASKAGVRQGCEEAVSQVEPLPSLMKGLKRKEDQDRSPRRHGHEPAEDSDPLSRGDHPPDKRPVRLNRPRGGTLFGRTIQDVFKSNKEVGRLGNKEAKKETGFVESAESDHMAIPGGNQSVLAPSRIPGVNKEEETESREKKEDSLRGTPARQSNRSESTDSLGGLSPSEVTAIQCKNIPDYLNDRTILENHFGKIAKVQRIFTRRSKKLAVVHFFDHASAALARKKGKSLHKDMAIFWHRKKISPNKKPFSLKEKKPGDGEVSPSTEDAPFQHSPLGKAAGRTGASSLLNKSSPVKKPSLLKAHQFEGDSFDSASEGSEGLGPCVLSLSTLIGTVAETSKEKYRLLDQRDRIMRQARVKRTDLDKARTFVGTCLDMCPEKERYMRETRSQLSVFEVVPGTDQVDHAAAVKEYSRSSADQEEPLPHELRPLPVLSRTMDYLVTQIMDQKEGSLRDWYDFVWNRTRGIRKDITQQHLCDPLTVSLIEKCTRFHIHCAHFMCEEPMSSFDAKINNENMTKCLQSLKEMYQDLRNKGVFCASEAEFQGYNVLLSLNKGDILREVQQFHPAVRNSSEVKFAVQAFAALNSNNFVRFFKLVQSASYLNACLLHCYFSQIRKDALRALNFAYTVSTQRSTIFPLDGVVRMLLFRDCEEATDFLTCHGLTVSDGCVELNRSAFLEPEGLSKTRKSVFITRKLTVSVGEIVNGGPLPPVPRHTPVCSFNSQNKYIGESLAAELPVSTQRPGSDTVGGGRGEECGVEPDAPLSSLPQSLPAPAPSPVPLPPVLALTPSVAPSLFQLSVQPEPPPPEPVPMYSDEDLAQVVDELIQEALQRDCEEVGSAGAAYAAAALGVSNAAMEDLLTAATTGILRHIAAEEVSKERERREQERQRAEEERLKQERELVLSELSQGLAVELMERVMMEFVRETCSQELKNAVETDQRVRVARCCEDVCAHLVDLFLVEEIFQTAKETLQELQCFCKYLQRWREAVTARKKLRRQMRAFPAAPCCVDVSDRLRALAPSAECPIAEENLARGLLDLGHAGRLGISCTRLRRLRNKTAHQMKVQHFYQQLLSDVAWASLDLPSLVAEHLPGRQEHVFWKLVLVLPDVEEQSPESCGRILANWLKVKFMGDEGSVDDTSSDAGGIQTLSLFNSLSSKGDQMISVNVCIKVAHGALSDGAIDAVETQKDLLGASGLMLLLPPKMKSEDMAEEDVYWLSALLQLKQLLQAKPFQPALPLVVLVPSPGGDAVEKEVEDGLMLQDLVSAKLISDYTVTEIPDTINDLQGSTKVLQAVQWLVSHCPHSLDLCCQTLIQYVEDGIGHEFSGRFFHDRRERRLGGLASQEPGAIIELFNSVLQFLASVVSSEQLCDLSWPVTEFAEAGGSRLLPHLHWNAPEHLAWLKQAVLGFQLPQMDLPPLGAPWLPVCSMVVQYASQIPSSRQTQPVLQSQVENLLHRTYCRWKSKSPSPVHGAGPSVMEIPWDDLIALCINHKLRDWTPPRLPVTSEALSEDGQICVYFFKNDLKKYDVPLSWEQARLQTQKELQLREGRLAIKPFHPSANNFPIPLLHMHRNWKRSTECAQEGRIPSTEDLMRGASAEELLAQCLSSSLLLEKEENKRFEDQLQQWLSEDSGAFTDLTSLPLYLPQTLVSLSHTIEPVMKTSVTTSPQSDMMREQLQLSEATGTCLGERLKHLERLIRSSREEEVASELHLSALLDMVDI
UniProt P50579: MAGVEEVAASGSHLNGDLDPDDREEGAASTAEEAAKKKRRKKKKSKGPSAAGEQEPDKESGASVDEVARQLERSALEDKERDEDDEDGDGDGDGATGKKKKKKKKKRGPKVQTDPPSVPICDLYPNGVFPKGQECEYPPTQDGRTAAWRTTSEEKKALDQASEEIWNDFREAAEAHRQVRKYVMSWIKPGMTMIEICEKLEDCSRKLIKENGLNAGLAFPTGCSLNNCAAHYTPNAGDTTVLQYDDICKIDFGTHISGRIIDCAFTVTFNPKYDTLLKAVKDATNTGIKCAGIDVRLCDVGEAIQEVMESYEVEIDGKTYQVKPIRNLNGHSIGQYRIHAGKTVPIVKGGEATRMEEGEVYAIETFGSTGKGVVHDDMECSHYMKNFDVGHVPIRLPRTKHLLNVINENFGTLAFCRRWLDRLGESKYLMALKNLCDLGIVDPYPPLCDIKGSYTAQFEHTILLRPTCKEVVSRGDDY
UniProt Q9Y316: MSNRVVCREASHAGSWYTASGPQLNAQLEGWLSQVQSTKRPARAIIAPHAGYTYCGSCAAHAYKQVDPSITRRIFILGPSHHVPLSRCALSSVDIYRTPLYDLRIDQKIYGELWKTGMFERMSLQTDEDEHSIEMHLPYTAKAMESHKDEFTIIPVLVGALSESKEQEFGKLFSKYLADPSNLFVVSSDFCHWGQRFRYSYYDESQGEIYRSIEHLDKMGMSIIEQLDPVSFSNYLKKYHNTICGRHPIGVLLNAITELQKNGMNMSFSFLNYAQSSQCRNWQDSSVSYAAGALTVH
UniProt P25205: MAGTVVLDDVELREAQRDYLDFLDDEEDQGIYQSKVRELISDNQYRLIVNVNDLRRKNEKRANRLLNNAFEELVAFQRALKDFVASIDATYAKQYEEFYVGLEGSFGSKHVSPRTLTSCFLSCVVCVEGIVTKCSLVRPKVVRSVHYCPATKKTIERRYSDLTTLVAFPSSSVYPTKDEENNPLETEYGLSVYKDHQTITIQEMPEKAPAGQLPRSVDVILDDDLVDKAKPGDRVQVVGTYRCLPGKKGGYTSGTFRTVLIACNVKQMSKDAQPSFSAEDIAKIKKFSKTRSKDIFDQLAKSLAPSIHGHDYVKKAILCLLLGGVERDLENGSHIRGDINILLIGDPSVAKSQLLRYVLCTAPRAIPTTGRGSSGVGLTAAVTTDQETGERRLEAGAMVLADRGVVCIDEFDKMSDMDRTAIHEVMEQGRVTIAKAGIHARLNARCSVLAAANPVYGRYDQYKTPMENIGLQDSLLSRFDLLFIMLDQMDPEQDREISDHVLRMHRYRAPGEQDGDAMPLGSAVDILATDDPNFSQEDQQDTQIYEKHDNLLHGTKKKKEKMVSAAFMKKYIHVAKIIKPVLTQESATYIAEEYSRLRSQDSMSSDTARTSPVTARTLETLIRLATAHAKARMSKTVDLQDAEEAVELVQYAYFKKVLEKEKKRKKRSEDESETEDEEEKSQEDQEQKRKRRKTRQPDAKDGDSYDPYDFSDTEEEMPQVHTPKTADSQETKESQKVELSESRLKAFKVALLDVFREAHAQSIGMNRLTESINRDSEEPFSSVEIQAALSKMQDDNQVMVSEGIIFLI

Compound: Cc1cc(ccc1-c1ccccc1)C(=O)N1CCCN(CC1)C(=O)CCl [compound 10]
Test: probe-labelled cysteine peptide fold change vs DMSO (competition) (log2 fold change); higher = less target engagement (more negative = stronger competition)
Conditions: THP-1, incubation time: 4 h
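Further: competitive profiling in live THP-1 cells: cysteine peptides tagged with an iodoacetamide desthiobiotin (IA-DTB) probe, intensity after compound treatment relative to DMSO-treated cells.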

Row | Target | probe-labelled cysteine peptide fold change (10 µM) | probe-labelled cysteine peptide fold change (50 µM)
1 | MCM8_Q9UJA3_411_LIVNSLCPVIFGHELVK (UniProt Q9UJA3) | 0.0771 | 0.349
2 | MGST1_P10620_50_VFANPEDCVAFGKGENAKK (UniProt P10620) | -0.397 | -0.691
3 | METTL26_Q96S19_162_CRNPEWGLR (UniProt Q96S19) | 0.105 | -0.15
4 | MCRS1_Q96EZ8_84_CSGSEPSSSEK (UniProt Q96EZ8) | -0.0254 | -0.104
5 | MCM2_P49736_406_DAILLADLVDSCK (UniProt P49736) | -0.0605 | 0.3
6 | MEIOB_Q8N635_424_ISVLSCK (UniProt Q8N635) | -0.0433 | 0.071
7 | MEPCE_Q7L2J0_419_KFQYGNYCK (UniProt Q7L2J0) | -0.172 | -0.149
8 | MCM6_Q14566_351_NLYHNLCTSLFPTIHGNDEVKR (UniProt Q14566) | 0.0763 | -0.122
9 | METAP1_P53582_368_SAQFEHTLLVTDTGCEILTR (UniProt P53582) | 0.000927 | -0.101
10 | MCL1_Q07820_286_TINQESCIEPLAESITDVLVR (UniProt Q07820) | -0.373 | 0.683
11 | MCM3AP_O60318_931_DCEEATDFLTCHGLTVSDGCVELNR (UniProt O60318) | -0.262 | -0.0698
12 | METTL2A_Q96IZ6_126_SEVPECR (UniProt Q96IZ6) | -0.0847 | -0.226
13 | MGMT_P16455_145_GNPVPILIPCHR (UniProt P16455) | -1.04 | -1.29
14 | MCL1_Q07820_16_NAVIGLNLYCGGAGLGAGSGGATRPGGR (UniProt Q07820) | 0.0416 | 0.263
15 | MEPCE_Q7L2J0_522_SCFPASLTASR (UniProt Q7L2J0) | -0.225 | -0.418
16 | MIA3_Q5JRA6_124_EELQVPTDETDFVCFDGGR (UniProt Q5JRA6) | -0.101 | 0.109
17 | MDN1_Q9NU22_1400_TTICQVFAALANQK (UniProt Q9NU22) | 0.0276 | 0.305
18 | METTL13_Q8N6R0_226_FRPVPGSALQIFELCAQEQR (UniProt Q8N6R0) | -0.0774 | -0.192
19 | MCM10_Q7L590_329_DLTQCVSLFLFGEVHK (UniProt Q7L590) | 0.02 | 0.672

Row | Target | probe-labelled cysteine peptide fold change (10 µM) | probe-labelled cysteine peptide fold change (50 µM)
20 | MED15_Q96RN5_618_QQYLCQPLLDAVLANIR (UniProt Q96RN5) | 0.19 | 0.0836
21 | MCM3AP_O60318_1945_EQLQLSEATGTCLGER (UniProt O60318) | -0.101 | -0.117
22 | METAP2_P50579_416_HLLNVINENFGTLAFCR (UniProt P50579) | 0.0763 | 0.123
23 | MEMO1_Q9Y316_55+58_AIIAPHAGYTYCGSCAAHAYK (UniProt Q9Y316) | -0.0774 | -0.354
24 | MELTF_P08582_216_CLAEGAGDVAFVK (UniProt P08582) | -0.137 | 0.00108
25 | ME1_P48163_240_YGMNCLIQFEDFANVNAFR (UniProt P48163) | 0.0931 | 0.17
26 | MCM3_P25205_119_TLTSCFLSCVVCVEGIVTK (UniProt P25205) | 0.0953 | -0.331
27 | MCM3_P25205_446_CSVLAAANPVYGR (UniProt P25205) | -0.148 | 0.0959
28 | MCM3AP_O60318_740_DITQQHLCDPLTVSLIEK (UniProt O60318) | -0.125 | -0.00913
29 | METAP2_P50579_380_GVVHDDMECSHYMK (UniProt P50579) | -0.28 | -0.388
30 | MCCC2_Q9HCC0_392_KGTHFVQLCCQR (UniProt Q9HCC0) | -0.0989 | -0.324
31 | MDN1_Q9NU22_521_HHSWSDSSVGCEQAPEEVSEAR (UniProt Q9NU22) | 0.141 | 0.0409
32 | METAP1_P53582_174_PGVTTEEIDHAVHLACIAR (UniProt P53582) | 0.143 | 0.146
33 | MEFV_O15553_521_ECQSEWELLQDIGDILHR (UniProt O15553) | -0.151 | -0.21
34 | MED1_Q15648_443_EDSPGLLQFEVCPLSESR (UniProt Q15648) | -0.458 | 0.192
35 | MCM6_Q14566_393_TTGEGTSLRGDINVCIVGDPSTAK (UniProt Q14566) | -0.173 | -0.351
36 | MEMO1_Q9Y316_244_YHNTICGR (UniProt Q9Y316) | -0.13 | 0.286
37 | MCM3AP_O60318_1240_ETLQELQCFCK (UniProt O60318) | 0.166 | -0.18
38 | MFN2_O95140_281_CTSFLVDELGVVDR (UniProt O95140) | 0.0211 | -0.0552
